# Experimental data from patent US20230356105A1, “TETRAAZADODECANE BASED CHELATING AGENTS FOR SEPARATION OF RARE EARTH ELEMENTS AND METHOD THEREFOR” (Ustav Organicke Chemie a Biochemie AV CR V.V.I., priority 2020, published 2023).
# Assay: Use of additives to improve separation of Nd/Dy mixture by precipitation with L5 (Example 18)
# Type: physicochemical
# Details: 11 mM L5
# Protocol: Stock solutions were pipetted into plastic 1×1 cm cuvettes to prepare reaction mixtures with concentrations as follows: • 1. […] 5 mM NdCl3 • 3. 5 mM DyCl3 • 4. 500 mM MOPS pH=7 • 5. the additive of interest, in a variable concentration; if possible, stock solutions were prepared from Na^+ salt forms of the compound; if not, the stock solutions were titrated by NaOH/HCl to pH=7 prior to addition (see Table 12 for additives and concentrations)
# These aqueous reaction mixtures, each prepared to a total volume of 2.0 mL with the addition of water as necessary, were mixed by the use of a PTFE-coated stir bar on a magnetic stirrer. The cuvettes were sealed with transparent tape to prevent evaporation overnight. The reaction mixtures were stirred for 18 hours, at which point 500 μL aliquots of each reaction mixture were transferred into plastic 2 mL Eppendorf tubes and centrifuged. The supernatants were carefully pipetted out and transferred to a new set of tubes. The precipitate was dissolved by addition of 500 μL 1M HCl. The absolute concentration of Nd and Dy in each supernatant and precipitate was determined by ICP-OES.
smiles,measurement,setting,value
NCC(=O)O [glycine],Separation factor (Dy/Nd),additive 50 mM,15.1
same,Separation factor (Dy/Nd),additive 100 mM,7.8
same,Separation factor (Dy/Nd),additive 150 mM,42.0
same,Separation factor (Dy/Nd),additive 200 mM,25.7
O=C(O)CO [glycolate],Separation factor (Dy/Nd),additive 5 mM,33.3
same,Separation factor (Dy/Nd),additive 10 mM,42.8
same,Separation factor (Dy/Nd),additive 15 mM,37.1
same,Separation factor (Dy/Nd),additive 20 mM,31.5
C[C@H](O)C(=O)O [l-lactate],Separation factor (Dy/Nd),additive 5 mM,4.3
same,Separation factor (Dy/Nd),additive 10 mM,25.8
same,Separation factor (Dy/Nd),additive 15 mM,18.1
same,Separation factor (Dy/Nd),additive 20 mM,26.3
O=[N+]([O-])O [nitrate],Separation factor (Dy/Nd),additive 100 mM,2.6
same,Separation factor (Dy/Nd),additive 200 mM,2.9
same,Separation factor (Dy/Nd),additive 500 mM,6.2
same,Separation factor (Dy/Nd),additive 1000 mM,16.7
OB(O)c1ccccc1 [phenylboronic acid],Separation factor (Dy/Nd),additive 20 mM,4.3
same,Separation factor (Dy/Nd),additive 250 mM,1.7
c1ccncc1 [pyridine],Separation factor (Dy/Nd),additive 20 mM,5.0
same,Separation factor (Dy/Nd),additive 250 mM,5.3
O=C(O)[C@@H](O)c1ccccc1 [s-mandelic acid],Separation factor (Dy/Nd),additive 20 mM,32.4
O=C(O)c1ccccc1O [salicylic acid],Separation factor (Dy/Nd),additive 20 mM,6.8
O=S(=O)(O)O [sulfate],Separation factor (Dy/Nd),additive 100 mM,5.7
same,Separation factor (Dy/Nd),additive 250 mM,7.4
same,Separation factor (Dy/Nd),additive 500 mM,2.1
same,Separation factor (Dy/Nd),additive 1000 mM,4.8
N#C[S-].[Na+] [thiocyanate],Separation factor (Dy/Nd),additive 100 mM,2.3
same,Separation factor (Dy/Nd),additive 200 mM,1.3
same,Separation factor (Dy/Nd),additive 500 mM,2.2
same,Separation factor (Dy/Nd),additive 1000 mM,5.8
"CC(C)(O)C(=O)O [α-HIBA, alpha-hydroxyisobutyric acid]",Separation factor (Dy/Nd),additive 5 mM,26.5
same,Separation factor (Dy/Nd),additive 10 mM,43.4
same,Separation factor (Dy/Nd),additive 15 mM,37.2
same,Separation factor (Dy/Nd),additive 20 mM,28.4
